Experimental findings from publication PMC8280061, “A novel ligand of the translationally controlled tumor protein (TCTP) identified by virtual drug screening for cancer differentiation therapy” (Investigational New Drugs, 2021) are described below.

These are yes or no findings as the source states them, for the method shown. Binding seen in cells or lysates may run through a third protein. Some binding calls cover weakened binding; strength is not graded here.

The target of this assay is T1, translationally controlled tumor protein (TCTP) (human (endogenous in MOLT-4)) (UniProt P13693).
T1 sequence: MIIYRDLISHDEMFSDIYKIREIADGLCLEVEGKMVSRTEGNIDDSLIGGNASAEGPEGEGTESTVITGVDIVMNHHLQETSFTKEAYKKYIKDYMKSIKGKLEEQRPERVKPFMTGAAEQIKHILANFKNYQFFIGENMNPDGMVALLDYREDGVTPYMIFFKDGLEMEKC
The experiment in a line: co-IP; TCTP polyclonal antibody coupled to Dynabeads M-270 Epoxy; lysates of MOLT-4 cells treated 24 h with DMSO, ZINC10157406 (IC50, 2 x IC50) or artesunate; detergent lysis, 0.5% DTT in extraction buffer; Western blot for TCTP and p53. For orientation: A western blot detects proteins with antibodies after separation by electrophoresis.

As for “tumor suppressor p53 (from UniProt P04637 1-393)”, the binding entry was “binds”.
